Data from patent US20250243277A1 (AVACTA LIFE SCIENCES, published 2025).
These are yes or no findings as the source states them, for the method shown. Some results given as binding are weak or reduced against the parent protein; the word gives no strength.

By UniProt entry, the sequences of proteins in these tests, tags left out. Residues count along the entry.
UniProt Q9NZQ7, residues 19-239: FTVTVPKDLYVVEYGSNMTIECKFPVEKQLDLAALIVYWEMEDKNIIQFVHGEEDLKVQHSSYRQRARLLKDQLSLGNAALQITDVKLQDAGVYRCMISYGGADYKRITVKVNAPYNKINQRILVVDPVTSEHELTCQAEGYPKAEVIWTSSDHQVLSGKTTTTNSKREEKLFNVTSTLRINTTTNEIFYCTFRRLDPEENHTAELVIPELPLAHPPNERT

B1: Clone 100 (designed binder)
chain: MIPGGLSEAKPATPEIQEIVDKVKPQLEEKTGETYGKLEAVQYKTQVDHTDVDWHFWGTNYYIKVRAGDNKYMHLKVFKSLAPAAPPWEFEDLVLTGYQVDKNKDDELTGF
B2: Clone 106 (designed binder)
chain: MIPGGLSEAKPATPEIQEIVDKVKPQLEEKTGETYGKLEAVQYKTQVDFSDLEWEGQGTNYYIKVRAGDNKYMHLKVFKSLEKKWGWIYIEDLVLTGYQVDKNKDDELTGF
B3: Clone 129 (designed binder)
chain: MIPGGLSEAKPATPEIQEIVDKVKPQLEEKTGETYGKLEAVQYKTQVVQRVHFPDWPGTNYYIKVRAGDNKYMHLKVFKSLNKENQDEEDEDLVLTGYQVDKNKDDELTGF
B4: Clone 15 (designed binder)
chain: MIPGGLSEAKPATPEIQEIVDKVKPQLEEKTGETYGKLEAVQYKTQVVPYFWFQHAKGTNYYIKVRAGDNKYMHLKVFKSLWQSLLDKNEEDLVLTGYQVDKNKDDELTGF
B5: Clone 168 (designed binder)
chain: MIPGGLSEAKPATPEIQEIVDKVKPQLEEKTGETYGKLEAVQYKTQVVWFDTWPVPEGTNYYIKVRAGDNKYMHLKVFKSLNWNDHLSTYEDLVLTGYQVDKNKDDELTGF
B6: Clone 179 (designed binder)
chain: MIPGGLSEAKPATPEIQEIVDKVKPQLEEKTGETYGKLEAVQYKTQVVFKTDDARWIGTNYYIKVRAGDNKYMHLKVFKSLFNYNKTEHTEDLVLTGYQVDKNKDDELTGF
B7: Clone 189 (designed binder)
chain: MIPGGLSEAKPATPEIQEIVDKVKPQLEEKTGETYGKLEAVQYKTQVVFQSTDSFWHGTNYYIKVRAGDNKYMHLKVFKSLFVENWQKRTEDLVLTGYQVDKNKDDELTGF
B8: Clone 190 (designed binder)
chain: MIPGGLSEAKPATPEIQEIVDKVKPQLEEKTGETYGKLEAVQYKTQVVGVKSTFHWSGTNYYIKVRAGDNKYMHLKVFKSLFNNHPLSPDEDLVLTGYQVDKNKDDELTGF
B9: Clone 201 (designed binder)
chain: MIPGGLSEAKPATPEIQEIVDKVKPQLEEKTGETYGKLEAVQYKTQVVQRAHFKQWYGTNYYIKVRAGDNKYMHLKVFKSLPGEPHHILDEDLVLTGYQVDKNKDDELTGF
B10: Clone 205 (designed binder)
chain: MIPGGLSEAKPATPEIQEIVDKVKPQLEEKTGETYGKLEAVQYKTQVVVFLSEIHWYGTNYYIKVRAGDNKYMHLKVFKSLRINNSGLSREDLVLTGYQVDKNKDDELTGF
B11: Clone 207 (designed binder)
chain: MIPGGLSEAKPATPEIQEIVDKVKPQLEEKTGETYGKLEAVQYKTQVVDTKTPWLWTGTNYYIKVRAGDNKYMHLKVFKSLFLKILAEDDEDLVLTGYQVDKNKDDELTGF
B12: Clone 224 (designed binder)
chain: MIPGGLSEAKPATPEIQEIVDKVKPQLEEKTGETYGKLEAVQYKTQVVTRRHFVQFTGTNYYIKVRAGDNKYMHLKVFKSLDEPATPTYLEDLVLTGYQVDKNKDDELTGF
B13: Clone 233 (designed binder)
chain: MIPGGLSEAKPATPEIQEIVDKVKPQLEEKTGETYGKLEAVQYKTQVVLRYHFQHFPGTNYYIKVRAGDNKYMHLKVFKSLDGQGALSLPEDLVLTGYQVDKNKDDELTGF
B14: Clone 236 (designed binder)
chain: MIPGGLSEAKPATPEIQEIVDKVKPQLEEKTGETYGKLEAVQYKTQVVRDGTFWDFWGTNYYIKVRAGDNKYMHLKVFKSLSQDYNGGQAEDLVLTGYQVDKNKDDELTGF
B15: Clone 253 (designed binder)
chain: MIPGGLSEAKPATPEIQEIVDKVKPQLEEKTGETYGKLEAVQYKTQVVTRPHFPGWNGTNYYIKVRAGDNKYMHLKVFKSLDFDHNFIADEDLVLTGYQVDKNKDDELTGF
B16: Clone 26 (designed binder)
chain: MIPGGLSEAKPATPEIQEIVDKVKPQLEEKTGETYGKLEAVQYKTQVVFVFLEVKWDGTNYYIKVRAGDNKYMHLKVFKSLRKERHQFDIEDLVLTGYQVDKNKDDELTGF
B17: Clone 3 (designed binder)
chain: MIPGGLSEAKPATPEIQEIVDKVKPQLEEKTGETYGKLEAVQYKTQVVPNQHFIVPYGTNYYIKVRAGDNKYMHLKVFKSLHWNGGYHGHEDLVLTGYQVDKNKDDELTGF
B18: Clone 30 (designed binder)
chain: MIPGGLSEAKPATPEIQEIVDKVKPQLEEKTGETYGKLEAVQYKTQVVKYVVQASKVGTNYYIKVRAGDNKYMHLKVFKSLYGQKDGQKEEDLVLTGYQVDKNKDDELTGF
B19: Clone 32 (designed binder)
chain: MIPGGLSEAKPATPEIQEIVDKVKPQLEEKTGETYGKLEAVQYKTQVVKYVVQASKVGTNYYIKVRAGDNKYMHLKVFKSLYGQKDGQKEEDLVLTGYQVDKNKDDELTGF
B20: Clone 38 (designed binder)
chain: MIPGGLSEAKPATPEIQEIVDKVKPQLEEKTGETYGKLEAVQYKTQVVRVPLDSNKWGTNYYIKVRAGDNKYMHLKVFKSLFRVRDYSFLEDLVLTGYQVDKNKDDELTGF
B21: Clone 62 (designed binder)
chain: MIPGGLSEAKPATPEIQEIVDKVKPQLEEKTGETYGKLEAVQYKTQVVFRQHFPNFSGTNYYIKVRAGDNKYMHLKVFKSLNGLEDPTQDEDLVLTGYQVDKNKDDELTGF
B22: Clone 67 (designed binder)
chain: MIPGGLSEAKPATPEIQEIVDKVKPQLEEKTGETYGKLEAVQYKTQVVSTKNLWRWSGTNYYIKVRAGDNKYMHLKVFKSLFNGAGGPDSEDLVLTGYQVDKNKDDELTGF
B23: Clone 89 (designed binder)
chain: MIPGGLSEAKPATPEIQEIVDKVKPQLEEKTGETYGKLEAVQYKTQVVDFRVAWHWVGTNYYIKVRAGDNKYMHLKVFKSLFNHRPGKPDEDLVLTGYQVDKNKDDELTGF
B24: Clone 9 (designed binder)
chain: MIPGGLSEAKPATPEIQEIVDKVKPQLEEKTGETYGKLEAVQYKTQVVQSHVEGEWLGTNYYIKVRAGDNKYMHLKVFKSLFFAIHRLGIEDLVLTGYQVDKNKDDELTGF
B25: Clone 96 (designed binder)
chain: MIPGGLSEAKPATPEIQEIVDKVKPQLEEKTGETYGKLEAVQYKTQVDFNQSRHGHGTNYYIKVRAGDNKYMHLKVFKSLELLHGLWWVEDLVLTGYQVDKNKDDELTGF

Molecular target: T1, human PD-L1-Fc (R&D Systems) (human, UniProt Q9NZQ7 19-239)
T1 construct: Bought from R&D Systems; Biotinylated in-house for the phage selection; also called huPD-L1-Fc; human PD-L1-Fc antigen; not shown: Fc part of the bought fusion
Assay: soluble Affimer ELISA

Binder	binding
B1	binds
B2	binds
B3	binds
B4	binds
B5	binds
B6	binds
B7	binds
B8	binds
B9	binds
B10	binds
B11	binds
B12	binds
B13	binds
B14	binds
B15	binds
B16	binds
B17	binds
B18	binds
B19	binds
B20	binds
B21	binds
B22	binds
B23	binds
B24	binds
B25	binds
